Assay results

Data taken from PubChem BioAssay AID1159506, deposited by NCATS (2015).

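Luminescence from an EWS-FLI1 target-promoter (NR0B1) reporter, set against a CMV-promoter reporter, two days after silencing single genes in TC32 Ewing sarcoma cells. Each siRNA was applied at 20 nM. A z-score of the log NR0B1-over-CMV signal, less the median of siRNAs with the same seed; more negative means a stronger specific loss of the NR0B1 reporter.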

This is part of the screen; most of the strongest results are not listed here. Sequences are the guide (antisense) strand, without overhang.

For UUAUUGUUCCCAGCCCGGC against C19orf24 the result was seed-corrected z-score 0.06648. With UUUUCUAAUUGCCUCAUCU against NMD3P1 the assay gave seed-corrected z-score 0.8189. With UUGAUUUGAGGGAGUAUCC against LIPN the assay gave seed-corrected z-score 0.2697. Result for UCCUCUUUCAUCAAACUCG against NT5E was seed-corrected z-score -0.1092. UCCAAUUCCACAGUAGGCC against TTC3 gave seed-corrected z-score -1.519. Result for UUUGCAAUCUCAGAUCGGC against GLT1D1 was seed-corrected z-score 0.1688.

UGUAGUACAAAGUCUAUGU against ABHD1 read seed-corrected z-score -0.2349. UUACUUCGGAGGAUGGUCU against STAC2 gave seed-corrected z-score 0.734. With UCUCUUUCCACUCCUUCUG against NMNAT1 the assay gave seed-corrected z-score 0.8357. AAAGUCUCCACCCAUGGUG against KIF2B gave seed-corrected z-score 0.6789. With UCUCUGGUCGCUUCUUCAC against KRBA1 the assay gave seed-corrected z-score 0.4637. For UCAUUUUCACCAGAUGUCU against PCP4 the result was seed-corrected z-score -0.7685.

UCCACAACCUCGUCGAUGC against RAP1GAP2 read seed-corrected z-score 0.5336. Result for AAUGCUCAUCUUAAGGUAG against CHCHD5 was seed-corrected z-score -0.6511. With UCUGGGUCUUCAGAAACCG against ZNF358 the assay gave seed-corrected z-score -1.108. For UCAUAGGCGAGGAAAUCUA against GSTM4 the result was seed-corrected z-score 0.01586. UACCUUAUCAUCACAAGUG against ENPP2 read seed-corrected z-score 0.409. Result for UUGGAUCGGAGAGAAAGGC against LOC728868 was seed-corrected z-score 0.6666.

With UAGAGACCAAUAAUUGUCC against OR1J1 the assay gave seed-corrected z-score -1.071. UUAGUGAACAUGGUUCGUU against DPRX read seed-corrected z-score 0.2918. Result for AAUCGUUAAAUGUGGACUG against RAP1BL was seed-corrected z-score 0.07821. UUUCUAACAACCAGUGAGU against FAM230A read seed-corrected z-score -0.3602. For ACCGUAAUUCGUCCAUCCC against CABP4 the result was seed-corrected z-score -0.1481. UCGGAUUGGAGUACUGUGG against SATB2 read seed-corrected z-score -0.6116.

With AACGCAUCAAUAUCAGCAC against PAPOLA the assay gave seed-corrected z-score -0.7346. UCUUAUGUUAUCGUCAUCC against ELP2 read seed-corrected z-score -0.1851.

The first 2 entries again:

{"sequence": "UUAUUGUUCCCAGCCCGGC", "target gene": "C19orf24", "seed-corrected z-score": "0.06648"}
{"sequence": "UUUUCUAAUUGCCUCAUCU", "target gene": "NMD3P1", "seed-corrected z-score": "0.8189"}